Laboratory results from patent US20040249122A1, “Cationic, amphipathic beta-sheet peptides and uses thereof” (priority 2003, published 2004).

Experiment: DSC, bilayer-to-hexagonal phase transition temperature (TH) of DiPoPE
Format: physicochemical

CC[C@H](C)[C@H](NC(=O)[C@H](CCCCN)NC(=O)[C@H](C)NC(=O)CNC(=O)[C@@H](NC(=O)[C@H](CCCCN)NC(=O)[C@@H](NC(=O)[C@H](CCCCN)NC(=O)[C@H](C)NC(=O)CNC(=O)[C@@H](NC(=O)[C@H](CCCCN)NC(=O)[C@@H](NC(=O)[C@H](CCCCN)NC(=O)[C@H](C)NC(=O)CNC(=O)[C@@H](NC(=O)[C@@H](N)CCCCN)[C@@H](C)CC)[C@@H](C)CC)[C@@H](C)CC)[C@@H](C)CC)[C@@H](C)CC)C(N)=O [(KIGAKI)3-NH2, K I G A K I K I G A K I K I G A K I -NH2] (H-KIGAKIKIGAKIKIGAKI-NH2)
effect on TH of DiPoPE (in words) (DSC): negligible effect
Linear Regression: slope of TH vs. mole fraction of peptide (DiPoPE, Table 3): 157 ± 142

Where a SMILES comes first, the peptide text is derived from it.
